Test results as given in the supplement of paper PMC7824004.
This is one part of the list. The data scatter; read single values as rough.

Test system: Candida albicans SN425
Assay: biofilm OD600 B-score; higher = more biofilm (less inhibition)
Settings: 10 µM; assay detail: High-throughput adherence inhibition optical density biofilm assay with C. albicans SN425 in RPMI-1640/MOPS pH 7.0, 384-well plates. …
Experimental: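 High-throughput adherence inhibition optical density biofilm assay with C. albicans SN425 in RPMI-1640/MOPS pH 7.0, 384-well plates. Compound (10 µM) was present only during the 90 min adherence step, then washed out, and the biofilm grew 24 h without compound. Biofilm was read as OD600 after removing the media. Scores are the difference from the mean in standard deviations and the plate B-score.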

NC12CC3CC(C1)CC(O)(C3)C2
biofilm OD600 B-score: 0.552

COc1cc(SC)ccc1C(=O)N1CCCC1
biofilm OD600 B-score: 0.94

CCS(=O)(=O)N1CCN(c2cccc(C)c2C)CC1
biofilm OD600 B-score: -0.167

COc1ccc(OC)c(Nc2nc(C)c(C(C)=O)s2)c1
biofilm OD600 B-score: 0.0486

Cc1cccc(CN(C)CCN(C)C)c1
biofilm OD600 B-score: 0.0821

O=C(Cc1ccccc1)N1CCC(C(=O)N2CCN(c3ccccc3)CC2)CC1
biofilm OD600 B-score: -1.74

O=C(Nc1cccnc1)C1CCCCC1
biofilm OD600 B-score: -1.6

Nc1nncn1C(=O)c1cccc(Cl)c1
biofilm OD600 B-score: 0.0602

O=C(CSc1ccccn1)c1ccc2c(c1)OCO2
biofilm OD600 B-score: -1.84

CCc1cccc(OCCCN2CCCCC2)c1
biofilm OD600 B-score: 3.47

Cc1ccc2c(c1)n([O-])c1c([n+]2=O)CCCC1
biofilm OD600 B-score: -4.44

COc1ccc(NC(=O)Cc2nnc(NC(=O)Nc3ccc(C)cc3)s2)cc1
biofilm OD600 B-score: -0.935

Nc1n[nH]c(-c2ccc(Br)cc2)n1
biofilm OD600 B-score: -0.125

CC(=O)Nc1ccc(S(=O)(=O)n2cccn2)cc1
biofilm OD600 B-score: -1.9

CCOc1ccc(NC(=O)CSc2ncn[nH]2)cc1
biofilm OD600 B-score: 0.0974

COc1ccc(COCC(O)CN2CCCCC2)cc1OC (centres undefined)
biofilm OD600 B-score: -0.249

CC(=O)N1CCc2ccccc2C1CN1C(=O)c2ccccc2C1=O (centres undefined)
biofilm OD600 B-score: 1.33

Cc1cc(C)nc(NC(=O)CCCc2ccccc2)n1
biofilm OD600 B-score: 1.41

COc1ccccc1CC(=O)Nc1ccccc1NC(C)=O
biofilm OD600 B-score: 0.493

c1ccc(CN2CCN(c3ccccn3)CC2)cc1
biofilm OD600 B-score: -1.51

Nc1nc(-c2ccccc2)c(I)c(=O)[nH]1
biofilm OD600 B-score: 4.86

CCC1CCC(NCC(C)(C)CN(C)C)CC1 (centres undefined)
biofilm OD600 B-score: 0.0769

OCCN(CCO)CC1CC2C=CC1C2 (centres undefined)
biofilm OD600 B-score: 0.921

O=[N+]([O-])c1ccc(N2CCCC2)c(OCCO)c1
biofilm OD600 B-score: -0.00328
